This passage reports binding signal results from article PMC7862700.

The entries are a selection whose mix differs from that of the whole data set. At the low end of the ranking, values are background and their order means little.

This assay concerns the target SPI1 (UniProt P17947). Briefly: DAPPL (digital affinity profiling via proximity ligation, sequencing). As to conditions: 10 mM Tris-HCl pH 7.5, 50 mM NaCl, 1 mM DTT, 4% glycerol, room temperature, 30 min; GST-TFs on glutathione beads, 16-mer random dsDNA library, 0.1% …; high values mean tight binding; double strand, one strand shown; scale: fold enrichment (6-mer frequency, TF over GST control).
As to GGTGGT, the binding signal was found to be 0.991.

Take CGCACA: the binding signal stood at 0.998.

Regarding GCATAC, the binding signal stood at 0.956.

AAATCT gave a binding signal of 1.14.

TAGGAT returned a binding signal of 0.925.

Sequence AGGAAT gave a binding signal of 0.772.

CGCAAC registered a binding signal of 0.919.

In turn, CGAGTA came in with a binding signal of 0.878.

For TGGGAC, the binding signal stood at 0.939.

In turn, TGAATG registered a binding signal of 1.26.

TCCAGC showed a binding signal of 0.852.

As to CGCTGT, the binding signal turned out to be 0.882.

CATAGA came in with a binding signal of 0.895.

With AATTTT, the binding signal turned out to be 1.3.

CGAGGT came in with a binding signal of 0.921.

For the sequence GTGACC, the binding signal turned out to be 1.32.

TCTGTA came in with a binding signal of 1.16.

Consider TTCGAG, for which the binding signal is 1.21.

In the case of GATTGC, the binding signal amounted to 0.941.

CTGGTA: the binding signal was determined as 1.33.

For GTTCGT, the binding signal amounted to 0.936.

Turning to AACACT, the binding signal came to 1.36.

Sequence TCAACA yielded a binding signal of 0.973.

Regarding GTCTCG, the binding signal was 1.33.

With CGCTAA, the binding signal was 0.96.

As for GTCCCA, the binding signal is 1.13.

The sequence TCAGTA displayed a binding signal of 0.96.

Turning to TTCCGG, the binding signal was 5.73.

In turn, CGCGCG yielded a binding signal of 1.

As for GTTGGC, the binding signal was found to be 0.939.

In the case of ATAAGG, the binding signal turned out to be 1.05.

In turn, GTGACT came in with a binding signal of 0.994.

Sequence CTGTGT yielded a binding signal of 0.846.

As for CACGCG, the binding signal is 1.08.

TCCCAT returned a binding signal of 1.28.

Regarding ACCTGA, the binding signal amounted to 1.01.

For the sequence TCGTTG, the binding signal was 0.878.

Sequence AAGGCA yielded a binding signal of 0.96.

With GGCAGC, the binding signal was 0.8.
